Results: patent publication EP4834881A1, “QUINOLONE COMPOUNDS AND USE THEREOF” (dated 2026)
The structures given here were assigned with low confidence; some may be wrong.

Amino acid sequences for entries named in this document (tags omitted).
UniProt Q96LB1, whole entry: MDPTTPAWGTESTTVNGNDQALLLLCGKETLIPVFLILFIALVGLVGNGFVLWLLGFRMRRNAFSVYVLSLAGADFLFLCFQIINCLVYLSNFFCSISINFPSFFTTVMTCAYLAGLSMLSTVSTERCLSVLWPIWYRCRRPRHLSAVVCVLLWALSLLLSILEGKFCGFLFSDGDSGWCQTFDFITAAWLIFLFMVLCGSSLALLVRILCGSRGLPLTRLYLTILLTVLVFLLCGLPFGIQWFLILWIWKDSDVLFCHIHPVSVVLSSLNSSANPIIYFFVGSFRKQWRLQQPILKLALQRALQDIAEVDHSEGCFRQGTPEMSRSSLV

Tests used:
human MRGPRX2 = human MRGPRX2 (Homo sapiens, UniProt Q96LB1); test: In vitro target binding assay: BRET between MRGPRX2-Nluc and Venus-β-arrestin1 in transfected HEK-293T cells, antagonist mode against agonist R-ZINC-3573 (EC80); conditions: antagonism of agonist R-ZINC-3573 at EC80, net BRET
From the text: Bioluminescence Resonance Energy Transfer (BRET) is an important biophysical technique for monitoring molecular interactions, and has been widely used to study protein-protein interactions in living cells. This technique requires the relevant proteins to be linked to an energy donor (such as luciferase) and an acceptor (such as a fluorescent protein). When a relevant drug molecule interacts with the protein, the protein structure alters, causing a change in the distance between the energy donor and the energy acceptor. The luminescence energy induced by the chemical reaction is transferred to the corresponding acceptor, resulting in increased acceptor emission, and generating a BRET signal. In this work, a DNA-synthesized target human MRGPRX2 and a donor luciferase Nluc (NanoLuc®Promega) (Supplier: Beijing Tsingke, Lot No.: SZ0171228-1), as well as an acceptor fluorescent protein Venus and the relevant test protein, namely human β-arrestin1 (ARRB1) (Supplier: Guangzhou Dahong Biotechnology, Lot No. HY22694-4396), were utilized, and were inserted into the eukaryotic expression vector plasmid pcDNA3.1(+) (Supplier: Qiyun Bio, Lot No.: QY2310) as fusion genes via a Linker sequence (GGSG). The cell line selected for the experiment was human embryonic kidney cells HEK-293T. The human embryonic kidney cell line HEK-293T was routinely cultured in 10 cm cell culture dishes using complete culture medium consisting of high-glucose DMEM medium supplemented with 10% (V/V) fetal bovine serum. Cells were seeded at 2×10^6 cells/10 cm dish on the first day of culture, and passaged every 72 h with the same number of cells. One day prior to transfection, cells were resuspended, counted, and seeded at a density of 2×10^6 cells/6 cm dish or 4×10^6 cells/10 cm dish. Transfection was carried out 16-24 h after seeding. Plasmids constructed with the fusion protein gene were transfected into the expression cell line, and the transfected cells were cultured under appropriate conditions for a period of time to allow sufficient expression of the fusion proteins. Transfection was performed by encapsulating plasmid DNA with PEI reagent, and the encapsulation process should to be carried out in Opti-MEM medium. The ratio of plasmid, PEI (Supplier: Yeasen Biotechnology, Lot No.: WP5430010), and Opti-MEM (Supplier: Gibco, Lot No.: 2883564) was 1:4:14 (W: W: V). The encapsulated plasmid was added to an appropriate amount of complete culture medium, amd gently mixed, which was then used to replace the existing culture medium of the previously plated cells. Cells were harvested 24 h after transfection. Subsequently, cells were resuspended using HBSS (Source: Biosharp, Lot No.: 24179687) and counted with a cell counter. The cells were diluted to a density of (3~5) ×10^5 cells/mL, and then seeded into a flat-bottom white 96-well microplate at 100 µ L/well, resulting in (3~5) ×10^4 cells per well. In each well, 10 µ L of antagonist compounds diluted with HBSS a different concentrations were added firstly, then the agonist compound at a specific concentration (EC80) was added. After reacting for 2 min, the substrate Furimazine (Supplier: TargetMol, Lot No.: 362434) at a final concentration of 10 µM was added. After reacting for another 2 min, the 96-well plate was placed in a PHERAstar FSX microplate reader (Supplier: BMG Labtech) to simultaneously measure the readings at wavelengths of 440 nm and 530 nm. Based on the fluorescence readings at 440 nm and 530 nm, the Ratio and net BRET were calculated. Ratio = Em530 nm / Em440 nm, and net BRET = Ratio co-transfection - Ratio single-transfection. The calculated net BRET values were inputted into GraphPad Prism 9, and curve fitting via nonlinear regression (four-parameter equation) and IC50 calculation were performed.

BALB/c mice [1] = test: Allergic rhinitis model: OVA sensitization and nasal challenge, number of sneezes; conditions: 5mg/kg p.o. once daily, within 10 min after the nasal challenge
Description: (§1) Experimental animals: BALB/c mice, from Guangdong Vital River Laboratory Animal Technology Co., Ltd.
Modeling was initiated on the day of grouping, which was designated as M1. Except for the normal group, mice in all modeling groups were intraperitoneally injected with a sensitization solution of (250 µg OVA (Ovalbumin) (Supplier: Shanghai Macklin, Lot No.: C16255388) mixed with 5 mg aluminum hydroxide/mL) per mouse, while the normal control group was given an equal volume of sterile PBS solution. The injection cycle was M1, M7, and M14. Starting from M21, challenge was carried out by nasal instillation once daily for 7 consecutive days. The challenge solution was a 50 mg/mL OVA solution, and a volume of 10 µL was instilled into each nostril per time. The normal control group was not subjected to nasal instillation.
Administration was initiated on the day of the challenge by nasal instillation, which was designated as D1, and was performed once daily for 7 consecutive days. The normal control group and the model control group were administered with vehicle alone under the same conditions:
The number of sneezes in each group was recorded within 10 min after the nasal challenge every day during the administration period.

BALB/c mice [2] = test: Psoriasis model: imiquimod cream on mouse back, PASI score; conditions: 4mg/g Topical application, once daily, mean ± SEM
Description: as §1
The clinical severity of psoriasis was assessed using the Psoriasis Area and Severity Index (PASI) score. The PASI scoring criteria for mice are as follows:
The hair on the back of the mice was shaved, and the application area was marked with a marker pen. Imiquimod cream (Supplier: Sichuan Mingxin Pharmaceutical, Lot No.: 24054002) was applied to the back of the mice for several consecutive days to establish a mouse model of psoriasis. Before daily application, the residual cream was removed using pure water.
Administration was initiated on the day of grouping, which was designated as D1, and was performed once daily for 8 consecutive days. The normal control group and the model control group were administered with vehicle alone under the same conditions. Mice were scored according to the PASI (Psoriasis area and severity index). The administration regimen for the mouse psoriasis model was as follows: […]

BALB/c mice [3] = test: Rosacea model: intradermal LL-37 in mice, erythema score; conditions: once daily, score 0-4, mean ± SEM
From the text: as §1
The hair on the back of the mice was shaved, and the modeling area was marked on the back skin, avoiding positions with abundant subcutaneous blood vessels. LL-37 (an antimicrobial peptide used for rosacea modeling) (Supplier: QYAOBlO (ChinaPeptides), Lot No.: 20240319) solution was drawn with a microsyringe and injected intradermally along the intradermal path. The needle was withdrawn slowly after injection. The modeling continued for 5 to 7 days, with injections administered twice a day.
Administration was initiated on the day of grouping, which was designated as D1, and was performed once daily for 7 consecutive days. The normal control group and the model control group were administered with vehicle alone under the same conditions. The changes in skin lesions at the injection site on the back of mice in each group were observed, and scores ranging from 0 to 4 were assigned based on the degree of erythema, wherein, a score of 0 indicates no erythema, a score of 1 indicates barely visible erythema, a score of 2 indicates pale erythema with blurred boundaries, a score of 3 indicates erythema with clear boundaries, and a score of 4 indicates dark erythema with clear boundaries. The administration regimen for the mouse rosacea model was as follows: […]

| IC50 (human MRGPRX2) [µM] | SMILES | other results |
| --- | --- | --- |
| 1 to 10 | NS(=O)(=O)c1ccc(-c2cc3c(cc2F)c(=O)c(C(=O)O)cn3C2CC2)cn1 | – |
| 1 to 10 | CCCCCNS(=O)(=O)c1ccc(-c2cc3c(cc2F)c(=O)c(C(=O)OC)cn3C2CC2)cn1 | number of sneezes (BALB/c mice [1]; D1): 2.4 number of sneezes/mouse; number of sneezes (BALB/c mice [1]; D2): 1.3 number of sneezes/mouse; number of sneezes (BALB/c mice [1]; D3): 14.5 number of sneezes/mouse; number of sneezes (BALB/c mice [1]; D4): 7.6 number of sneezes/mouse; number of sneezes (BALB/c mice [1]; D5): 7.2 number of sneezes/mouse; number of sneezes (BALB/c mice [1]; D6): 13.4 number of sneezes/mouse; number of sneezes (BALB/c mice [1]; D7): 14.8 number of sneezes/mouse |
| 1 to 10 | O=C(O)c1cn(C2CC2)c2cc(-c3ccc(S(=O)(=O)N4CC(F)(F)C4)nc3)c(F)cc2c1=O | PASI score (BALB/c mice [2]; D1): 0; PASI score (BALB/c mice [2]; D2): 0.5±0.3; PASI score (BALB/c mice [2]; D3): 1.8±0.3 |
| 10 to 80 | O=C(O)c1cn(C2CC2)c2cc(-c3ccc(S(=O)(=O)NC4CCOCC4)nc3)c(F)cc2c1=O | – |
| 1 to 10 | O=C(O)c1cn(C2CC2)c2cc(-c3ccc(S(=O)(=O)N4CCCC4)nc3)c(F)cc2c1=O | – |
| 1 to 10 | CCCCCNS(=O)(=O)c1ccc(-c2cc3c(cc2F)c(=O)c(C(=O)O)cn3C2CC2)cn1 | – |
| 1 to 10 | CCCS(=O)(=O)Nc1ccc(-c2cc3c(cc2F)c(=O)c(C(=O)O)cn3C2CC2)cn1 | PASI score (BALB/c mice [2]; D1): 0; PASI score (BALB/c mice [2]; D2): 0.6±0.3; PASI score (BALB/c mice [2]; D3): 1.9±0.3; PASI score (BALB/c mice [2]; D4): 3.1±0.3; PASI score (BALB/c mice [2]; D5): 3.9±0.4 |
| 10 to 80 | CCCNS(=O)(=O)c1ccc(-c2cc3c(cc2F)c(=O)c(C(=O)OC)cn3C2CC2)cc1 | – |
| 10 to 80 | CCCNS(=O)(=O)c1ccc(-c2cc3c(cc2F)c(=O)c(C(=O)O)cn3C2CC2)cn1 | – |
| 1 to 10 | O=C(O)c1cn(C2CC2)c2cc(-c3ccc(S(=O)(=O)N4CCCCC4)nc3)c(F)cc2c1=O | – |

More lines, now with the values behind:

| SMILES | IC50 (human MRGPRX2) [µM] | other results |
| --- | --- | --- |
| CCn1cc(C(=O)O)c(=O)c2cc(F)c(-c3ccc(S(=O)(=O)N4CCCC4)cc3)cc21 | 1 to 10 | – |
| CCCCCCCCCNS(=O)(=O)c1ccc(-c2c(F)cc3c(=O)c(C(=O)O)cn(C4CC4)c3c2OC)cc1 | 0.1 to 1 | – |
| C=CCNc1ccc(-c2c(F)cc3c(=O)c(C(=O)O)cn(C4CC4)c3c2Cl)cn1 | 1 to 10 | – |
| O=C(O)c1cn(C2CC2)c2cc(-c3ccc(NC(=O)C(F)F)nc3)c(F)cc2c1=O | 10 to 80 | – |
| CCCCCNS(=O)(=O)c1ccc(-c2c(F)cc3c(=O)c(C(=O)O)cn(CC)c3c2F)cn1 | 1 to 10 | – |
| CCCCCCCNS(=O)(=O)c1ccc(-c2cc3c(cc2F)c(=O)c(C(=O)OC)cn3C2CC2)cc1 | 0.1 to 1 | – |
| CCCCCCCNS(=O)(=O)c1ccc(-c2c(F)cc3c(=O)c(C(=O)O)cn(C4CC4)c3c2OC)nc1 | 0.1 to 1 | number of sneezes (BALB/c mice [1]; D1): 1.5 number of sneezes/mouse; number of sneezes (BALB/c mice [1]; D2): 4.7 number of sneezes/mouse; number of sneezes (BALB/c mice [1]; D3): 15.2 number of sneezes/mouse; number of sneezes (BALB/c mice [1]; D4): 13.5 number of sneezes/mouse; number of sneezes (BALB/c mice [1]; D5): 9.8 number of sneezes/mouse; number of sneezes (BALB/c mice [1]; D6): 14.0 number of sneezes/mouse; number of sneezes (BALB/c mice [1]; D7): 12.0 number of sneezes/mouse |
| C=CCNc1ccc(-c2nc3c(cc2F)c(=O)c(C(=O)O)cn3C2CC2)cc1 | 10 to 80 | – |
| O=C(O)c1cn(C2CC2)c2c(Cl)c(-c3ccc(S(=O)(=O)N4CCCC4)cc3)c(F)cc2c1=O | 1 to 10 | – |
| O=C(O)c1cn(C2CC2)c2c(Cl)c(-c3ccc(S(=O)(=O)NC4CCCCC4)nc3)c(F)cc2c1=O | 1 to 10 | – |
| CCCS(=O)(=O)Nc1ccc(-c2c(F)cc3c(=O)c(C(=O)O)cn(C4CC4)c3c2Cl)nc1 | 10 to 80 | – |
| CCCCCCCNS(=O)(=O)c1ccc(-c2cc3c(cc2F)c(=O)c(C(=O)O)cn3C2CC2)nc1 | 1 to 10 | – |
| CCCCCNS(=O)(=O)c1ccc(-c2cc3c(cc2F)c(=O)c(C(=O)O)cn3CC)cc1 | 1 to 10 | – |
| O=C(O)c1cn(C2CC2)c2nc(-c3ccc(S(=O)(=O)NCCCC(F)(F)F)cc3)c(F)cc2c1=O | 1 to 10 | – |
| NS(=O)(=O)c1ccc(-c2cc3c(cc2F)c(=O)c(C(=O)O)cn3C2CC2)cc1F | 10 to 80 | – |
| NC(=O)c1cc(-c2c(F)cc3c(=O)c(C(=O)O)cn(C4CC4)c3c2F)ccn1 | 1 to 10 | PASI score (BALB/c mice [2]; D1): 0; PASI score (BALB/c mice [2]; D2): 0.6±0.3; PASI score (BALB/c mice [2]; D3): 1.6±0.3; PASI score (BALB/c mice [2]; D4): 2.7±0.4 |
| CC(C)(C)CNC(=O)c1ccc(-c2cc3c(cc2F)c(=O)c(C(=O)O)cn3C2CC2)cc1 | 10 to 80 | – |
| NC(=O)c1cc(-c2c(F)cc3c(=O)c(C(=O)O)cn(C4CC4)c3c2Cl)ccn1 | 10 to 80 | – |
| O=C(O)c1cn(C2CC2)c2c(Cl)c(-c3ccc(S(=O)(=O)N4CC(F)(F)C4)cn3)c(F)cc2c1=O | 1 to 10 | erythema score (BALB/c mice [3]; D1, 4mg/g Topical application): 1.6±0.3; erythema score (BALB/c mice [3]; D1, 40mg/kg Oral): 1.7±0.2; erythema score (BALB/c mice [3]; D7, 4mg/g Topical application): 1.3±0.2; erythema score (BALB/c mice [3]; D7, 40mg/kg Oral): 1.2±0.2 |
| O=C(O)c1cn(C2CC2)c2cc(-c3ccc(S(=O)(=O)N4CCCC4)cc3)c(F)cc2c1=O | 1 to 10 | – |
